Data published in the supplement of paper PMC12823440, “Inhibitors supercharge kinase turnover through native proteolytic circuits” (Nature, 2025).
Some of the results follow. The calls rarely recur for the same compound in another form.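 Kinases were expressed as nanoluciferase fusions in K562 cells and luminescence was read every 4 h between 2 and 18 h as percent of control, DMSO set to 100% and a positive control to 0%. A time point counts as decreased when the signal drops significantly (2 sigma). The hit call is the authors' own, does not follow from the count of time points alone, and its rule is not shown.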

Sequences of proteins named here, by UniProt entry; tags and fusion partners are left off. A change or cut given only in a name is not applied to a line headed by its entry.
UniProt P50750, whole entry: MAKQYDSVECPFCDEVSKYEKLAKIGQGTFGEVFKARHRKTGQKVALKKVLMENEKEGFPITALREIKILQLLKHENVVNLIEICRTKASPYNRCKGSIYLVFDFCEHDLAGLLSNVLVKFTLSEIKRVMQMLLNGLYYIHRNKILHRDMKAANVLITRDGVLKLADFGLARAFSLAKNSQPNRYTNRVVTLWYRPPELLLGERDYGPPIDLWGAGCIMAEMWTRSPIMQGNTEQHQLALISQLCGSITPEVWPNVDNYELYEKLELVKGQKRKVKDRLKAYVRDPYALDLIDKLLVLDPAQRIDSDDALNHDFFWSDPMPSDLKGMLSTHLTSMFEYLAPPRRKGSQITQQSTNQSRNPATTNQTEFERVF
UniProt O96017, whole entry: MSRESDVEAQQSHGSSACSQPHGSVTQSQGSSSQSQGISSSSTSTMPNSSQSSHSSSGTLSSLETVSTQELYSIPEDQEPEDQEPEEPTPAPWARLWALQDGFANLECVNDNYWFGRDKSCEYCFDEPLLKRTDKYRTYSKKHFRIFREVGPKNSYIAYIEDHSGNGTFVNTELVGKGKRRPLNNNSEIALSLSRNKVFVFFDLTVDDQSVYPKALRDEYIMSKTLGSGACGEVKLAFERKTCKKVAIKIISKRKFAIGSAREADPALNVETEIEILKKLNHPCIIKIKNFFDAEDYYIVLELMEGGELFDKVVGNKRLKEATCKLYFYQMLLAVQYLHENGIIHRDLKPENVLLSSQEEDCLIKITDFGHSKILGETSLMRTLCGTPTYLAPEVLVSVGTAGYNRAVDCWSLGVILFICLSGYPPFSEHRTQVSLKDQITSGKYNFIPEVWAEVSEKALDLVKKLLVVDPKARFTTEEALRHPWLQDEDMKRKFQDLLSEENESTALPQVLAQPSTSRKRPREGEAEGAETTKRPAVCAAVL
UniProt P07333, whole entry: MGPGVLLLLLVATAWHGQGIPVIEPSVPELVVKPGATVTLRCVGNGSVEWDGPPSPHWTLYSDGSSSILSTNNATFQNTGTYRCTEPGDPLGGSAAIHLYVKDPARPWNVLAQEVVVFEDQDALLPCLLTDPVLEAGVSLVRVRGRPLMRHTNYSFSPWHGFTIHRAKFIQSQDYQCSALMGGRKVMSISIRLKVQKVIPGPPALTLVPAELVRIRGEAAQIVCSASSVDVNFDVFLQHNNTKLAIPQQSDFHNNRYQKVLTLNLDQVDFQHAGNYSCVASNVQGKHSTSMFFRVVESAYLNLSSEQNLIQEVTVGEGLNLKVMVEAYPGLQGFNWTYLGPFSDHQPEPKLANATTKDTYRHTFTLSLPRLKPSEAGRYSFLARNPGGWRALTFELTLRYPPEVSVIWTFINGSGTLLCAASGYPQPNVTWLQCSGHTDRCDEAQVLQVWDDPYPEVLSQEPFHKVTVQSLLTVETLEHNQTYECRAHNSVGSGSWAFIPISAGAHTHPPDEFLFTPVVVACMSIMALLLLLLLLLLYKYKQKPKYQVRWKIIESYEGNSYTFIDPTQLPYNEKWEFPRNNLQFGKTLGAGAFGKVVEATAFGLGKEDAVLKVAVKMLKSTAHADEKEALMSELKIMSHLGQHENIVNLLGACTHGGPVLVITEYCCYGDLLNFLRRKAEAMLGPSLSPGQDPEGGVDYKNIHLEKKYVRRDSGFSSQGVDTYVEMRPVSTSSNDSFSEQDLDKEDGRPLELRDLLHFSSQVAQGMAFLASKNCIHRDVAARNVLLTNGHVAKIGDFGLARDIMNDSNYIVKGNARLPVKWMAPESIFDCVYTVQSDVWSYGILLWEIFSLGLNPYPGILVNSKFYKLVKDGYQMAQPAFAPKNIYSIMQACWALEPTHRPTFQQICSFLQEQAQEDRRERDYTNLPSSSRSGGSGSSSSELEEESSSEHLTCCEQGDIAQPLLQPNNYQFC
UniProt P41240: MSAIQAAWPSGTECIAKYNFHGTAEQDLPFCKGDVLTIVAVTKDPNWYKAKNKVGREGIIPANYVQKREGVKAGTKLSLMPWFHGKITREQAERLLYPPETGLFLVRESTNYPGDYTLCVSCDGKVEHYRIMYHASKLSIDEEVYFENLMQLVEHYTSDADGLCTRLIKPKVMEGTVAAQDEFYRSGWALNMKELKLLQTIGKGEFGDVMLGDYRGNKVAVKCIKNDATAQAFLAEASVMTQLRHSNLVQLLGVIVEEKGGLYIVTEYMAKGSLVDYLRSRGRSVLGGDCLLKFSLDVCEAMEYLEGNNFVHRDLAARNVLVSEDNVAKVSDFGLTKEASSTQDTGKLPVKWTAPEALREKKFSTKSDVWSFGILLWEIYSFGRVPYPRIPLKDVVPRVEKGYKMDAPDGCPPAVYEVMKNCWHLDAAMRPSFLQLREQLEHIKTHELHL
UniProt P48729: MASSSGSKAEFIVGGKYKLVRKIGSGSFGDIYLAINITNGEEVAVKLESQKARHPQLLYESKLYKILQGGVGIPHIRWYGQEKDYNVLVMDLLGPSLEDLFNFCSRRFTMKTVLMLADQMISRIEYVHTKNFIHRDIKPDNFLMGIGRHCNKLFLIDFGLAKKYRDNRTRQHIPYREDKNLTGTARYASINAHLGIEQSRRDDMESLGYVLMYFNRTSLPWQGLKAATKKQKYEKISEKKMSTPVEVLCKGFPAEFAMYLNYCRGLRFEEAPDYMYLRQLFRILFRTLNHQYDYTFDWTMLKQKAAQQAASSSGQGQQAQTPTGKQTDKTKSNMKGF
UniProt P48730: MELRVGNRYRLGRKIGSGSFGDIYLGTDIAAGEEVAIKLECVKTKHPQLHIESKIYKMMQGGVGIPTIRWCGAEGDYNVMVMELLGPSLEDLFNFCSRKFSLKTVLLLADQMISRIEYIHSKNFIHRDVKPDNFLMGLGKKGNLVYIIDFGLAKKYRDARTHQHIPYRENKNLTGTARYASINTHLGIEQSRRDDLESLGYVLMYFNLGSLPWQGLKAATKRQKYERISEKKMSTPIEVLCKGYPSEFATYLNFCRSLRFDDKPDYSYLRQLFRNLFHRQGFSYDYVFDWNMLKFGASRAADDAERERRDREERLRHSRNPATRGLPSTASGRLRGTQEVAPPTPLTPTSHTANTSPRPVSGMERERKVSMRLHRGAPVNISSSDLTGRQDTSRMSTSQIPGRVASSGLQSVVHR
UniProt Q08345: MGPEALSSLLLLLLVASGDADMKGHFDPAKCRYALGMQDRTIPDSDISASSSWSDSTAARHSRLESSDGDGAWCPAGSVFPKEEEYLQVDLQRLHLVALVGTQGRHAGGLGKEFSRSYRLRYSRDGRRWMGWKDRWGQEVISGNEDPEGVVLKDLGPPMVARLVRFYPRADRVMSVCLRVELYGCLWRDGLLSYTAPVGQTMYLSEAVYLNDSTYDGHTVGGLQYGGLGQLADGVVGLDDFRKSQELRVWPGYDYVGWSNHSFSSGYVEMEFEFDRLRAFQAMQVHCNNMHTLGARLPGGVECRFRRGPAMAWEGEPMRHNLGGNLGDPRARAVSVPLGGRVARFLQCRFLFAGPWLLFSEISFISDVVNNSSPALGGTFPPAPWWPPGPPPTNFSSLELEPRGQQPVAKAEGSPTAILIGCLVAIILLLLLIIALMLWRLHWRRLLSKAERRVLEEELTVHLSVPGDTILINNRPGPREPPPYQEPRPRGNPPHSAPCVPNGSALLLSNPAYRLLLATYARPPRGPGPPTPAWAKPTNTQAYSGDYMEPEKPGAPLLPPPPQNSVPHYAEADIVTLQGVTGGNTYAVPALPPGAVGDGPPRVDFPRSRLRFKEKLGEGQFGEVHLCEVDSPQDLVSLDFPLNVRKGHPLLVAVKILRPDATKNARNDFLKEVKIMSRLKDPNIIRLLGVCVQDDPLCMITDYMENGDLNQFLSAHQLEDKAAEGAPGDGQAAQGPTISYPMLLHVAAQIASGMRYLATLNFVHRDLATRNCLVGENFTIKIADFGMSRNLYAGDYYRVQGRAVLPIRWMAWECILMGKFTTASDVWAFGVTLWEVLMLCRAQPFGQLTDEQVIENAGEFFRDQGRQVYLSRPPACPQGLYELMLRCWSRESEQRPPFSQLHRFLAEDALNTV
UniProt Q9Y463, whole entry, looked up: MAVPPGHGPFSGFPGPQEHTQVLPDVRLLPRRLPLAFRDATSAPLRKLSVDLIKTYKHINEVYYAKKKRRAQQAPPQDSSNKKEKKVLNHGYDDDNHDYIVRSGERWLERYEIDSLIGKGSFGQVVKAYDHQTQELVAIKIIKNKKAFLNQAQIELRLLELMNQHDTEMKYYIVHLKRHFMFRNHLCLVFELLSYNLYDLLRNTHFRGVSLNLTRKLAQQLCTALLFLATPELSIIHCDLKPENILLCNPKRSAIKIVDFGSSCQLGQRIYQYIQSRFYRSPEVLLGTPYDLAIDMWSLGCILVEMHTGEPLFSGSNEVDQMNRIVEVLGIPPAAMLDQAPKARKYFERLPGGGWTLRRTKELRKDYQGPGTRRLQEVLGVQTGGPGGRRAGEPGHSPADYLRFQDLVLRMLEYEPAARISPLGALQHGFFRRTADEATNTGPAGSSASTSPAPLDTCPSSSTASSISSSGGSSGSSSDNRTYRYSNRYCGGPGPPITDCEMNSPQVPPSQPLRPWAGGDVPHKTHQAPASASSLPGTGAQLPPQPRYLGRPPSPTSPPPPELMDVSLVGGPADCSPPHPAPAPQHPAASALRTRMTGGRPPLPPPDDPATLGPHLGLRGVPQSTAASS
UniProt Q92630: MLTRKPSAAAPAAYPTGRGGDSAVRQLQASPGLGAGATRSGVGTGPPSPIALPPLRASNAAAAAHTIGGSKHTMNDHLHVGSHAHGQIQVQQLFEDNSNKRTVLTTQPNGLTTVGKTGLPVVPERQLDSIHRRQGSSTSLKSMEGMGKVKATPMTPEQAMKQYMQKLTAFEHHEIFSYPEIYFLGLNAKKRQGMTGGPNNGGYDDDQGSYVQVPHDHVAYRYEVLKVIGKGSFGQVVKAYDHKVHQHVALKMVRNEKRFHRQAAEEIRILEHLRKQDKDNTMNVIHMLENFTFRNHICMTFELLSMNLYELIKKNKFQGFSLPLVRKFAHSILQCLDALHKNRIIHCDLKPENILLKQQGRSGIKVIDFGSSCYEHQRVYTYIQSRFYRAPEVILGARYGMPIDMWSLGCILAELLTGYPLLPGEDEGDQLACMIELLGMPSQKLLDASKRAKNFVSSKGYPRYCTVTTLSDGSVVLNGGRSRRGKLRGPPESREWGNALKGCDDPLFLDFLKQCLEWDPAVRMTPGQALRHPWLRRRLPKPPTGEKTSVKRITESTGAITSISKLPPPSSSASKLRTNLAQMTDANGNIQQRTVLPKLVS
UniProt P21860, whole entry: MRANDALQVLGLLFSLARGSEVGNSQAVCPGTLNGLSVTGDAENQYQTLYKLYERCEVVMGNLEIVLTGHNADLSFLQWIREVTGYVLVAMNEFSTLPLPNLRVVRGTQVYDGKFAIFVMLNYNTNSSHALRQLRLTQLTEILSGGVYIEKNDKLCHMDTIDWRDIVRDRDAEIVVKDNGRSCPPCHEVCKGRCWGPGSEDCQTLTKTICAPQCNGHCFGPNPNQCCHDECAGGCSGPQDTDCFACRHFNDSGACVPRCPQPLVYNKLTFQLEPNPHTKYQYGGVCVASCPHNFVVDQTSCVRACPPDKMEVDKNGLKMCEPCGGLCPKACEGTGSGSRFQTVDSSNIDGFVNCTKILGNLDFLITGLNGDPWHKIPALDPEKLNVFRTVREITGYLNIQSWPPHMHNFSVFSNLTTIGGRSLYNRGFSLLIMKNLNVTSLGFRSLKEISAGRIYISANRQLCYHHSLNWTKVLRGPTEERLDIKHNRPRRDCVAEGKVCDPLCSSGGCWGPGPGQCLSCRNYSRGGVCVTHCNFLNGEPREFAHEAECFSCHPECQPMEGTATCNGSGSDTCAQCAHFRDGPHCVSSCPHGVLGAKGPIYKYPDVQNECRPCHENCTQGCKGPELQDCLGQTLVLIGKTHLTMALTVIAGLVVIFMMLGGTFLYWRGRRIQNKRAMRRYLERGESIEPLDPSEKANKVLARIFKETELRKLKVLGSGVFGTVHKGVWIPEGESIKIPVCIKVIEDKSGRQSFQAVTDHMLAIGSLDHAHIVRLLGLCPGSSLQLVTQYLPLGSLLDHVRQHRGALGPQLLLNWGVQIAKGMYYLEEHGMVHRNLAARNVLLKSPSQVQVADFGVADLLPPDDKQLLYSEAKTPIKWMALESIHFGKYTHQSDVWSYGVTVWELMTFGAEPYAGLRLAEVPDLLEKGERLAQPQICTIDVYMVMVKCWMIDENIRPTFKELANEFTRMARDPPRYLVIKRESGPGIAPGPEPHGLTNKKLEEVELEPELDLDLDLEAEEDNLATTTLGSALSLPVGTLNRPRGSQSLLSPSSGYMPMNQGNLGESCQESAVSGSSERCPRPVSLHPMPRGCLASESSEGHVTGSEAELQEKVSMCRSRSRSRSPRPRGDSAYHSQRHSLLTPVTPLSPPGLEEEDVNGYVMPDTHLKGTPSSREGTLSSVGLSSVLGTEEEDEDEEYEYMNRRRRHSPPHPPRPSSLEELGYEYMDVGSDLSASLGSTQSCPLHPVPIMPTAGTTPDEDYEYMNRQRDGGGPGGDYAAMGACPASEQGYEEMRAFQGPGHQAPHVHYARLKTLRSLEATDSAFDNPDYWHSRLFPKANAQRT

Tests used:
Assay in all cases: kinase-Nluc reporter destabilization hit call (1 = scored as downregulated) (binary); higher = compound decreases kinase abundance
Conditions in all cases: K562; 2-18 h
CDK7 = CDK7 (UniProt P50613)
CDK9 = CDK9 (UniProt P50750)
CHEK2 = CHEK2 (UniProt O96017)
CSF1R = CSF1R (UniProt P07333)
CSK = CSK (UniProt P41240)
CSNK1A1 = CSNK1A1 (UniProt P48729)
CSNK1D = CSNK1D (UniProt P48730)
DDR1 = DDR1 (UniProt Q08345)
DYRK1B = DYRK1B (UniProt Q9Y463)
DYRK2 = DYRK2 (UniProt Q92630)
EGFR = EGFR (UniProt P00533)
EGFR_G719S = EGFR_G719S (UniProt P00533)
EGFR_G719S_T790M = EGFR_G719S_T790M (UniProt P00533)
EGFR_L718V = EGFR_L718V (UniProt P00533)
EGFR_L858R = EGFR_L858R (UniProt P00533)
EGFR_L861Q = EGFR_L861Q (UniProt P00533)
EGFR_T790M = EGFR_T790M (UniProt P00533)
EPHA2 = EPHA2 (UniProt P29317)
ERBB3 = ERBB3 (UniProt P21860)
[1] = biological target: ERBB4_R711C (clone: ERBB4_mut) (UniProt Q15303)

Measured: kinase-Nluc reporter destabilization hit call

CN(C)c1ccc(/C=C2\C(=O)Nc3ccccc32)c2ccccc12 (10 µM)
inactive: CDK7 = 0 | CDK9 = 0 | CHEK2 = 0 | CSF1R 0 | CSK 0 | CSNK1A1 = 0 | CSNK1D 0 | DDR1 = 0 | DYRK1B 0 | DYRK2 = 0 | EGFR 0 | EGFR_G719S 0 | EGFR_G719S_T790M 0 | EGFR_L718V 0 | EGFR_L858R 0 | EGFR_L861Q 0 | EGFR_T790M 0 | EPHA2 = 0 | ERBB3 = 0 | [1] 0

S=C(NCc1ccc2c(c1)OCO2)N1CCN(c2ncnc3c2oc2ccccc23)CC1 [Amuvatinib] (2.5 µM)
inactive: CDK7 = 0 | CDK9 = 0 | CHEK2 = 0 | CSF1R 0 | CSK 0 | CSNK1A1 = 0 | CSNK1D 0 | DDR1 = 0 | DYRK1B 0 | DYRK2 = 0 | EGFR 0 | EGFR_G719S 0 | EGFR_G719S_T790M 0 | EGFR_L718V 0 | EGFR_L858R 0 | EGFR_L861Q 0 | EGFR_T790M 0 | EPHA2 = 0 | ERBB3 = 0 | [1] 0

CC(=O)Nc1nc(C)c(-c2cc(C)c3c(c2)CN([C@@H](C)C2CC2)C3=O)s1 (10 µM)
inactive: CDK7 = 0 | CDK9 = 0 | CHEK2 = 0 | CSF1R 0 | CSK 0 | CSNK1A1 = 0 | CSNK1D 0 | DDR1 = 0 | DYRK1B 0 | DYRK2 = 0 | EGFR 0 | EGFR_G719S 0 | EGFR_G719S_T790M 0 | EGFR_L718V 0 | EGFR_L858R 0 | EGFR_L861Q 0 | EGFR_T790M 0 | EPHA2 = 0 | ERBB3 = 0 | [1] 0

CN1CCN(Cc2ccc(-c3cn(C4CCC(O)CC4)c4nc(NCCC5CC5)ncc34)cc2)CC1 (stereo not given) (2.5 µM)
inactive: CDK7 = 0 | CDK9 = 0 | CHEK2 = 0 | CSF1R 0 | CSK 0 | CSNK1A1 = 0 | CSNK1D 0 | DDR1 = 0 | DYRK1B 0 | DYRK2 = 0 | EGFR 0 | EGFR_G719S 0 | EGFR_G719S_T790M 0 | EGFR_L718V 0 | EGFR_L858R 0 | EGFR_L861Q 0 | EGFR_T790M 0 | EPHA2 = 0 | ERBB3 = 0 | [1] 0

O=C1OC(COc2ccccc2[N+](=O)[O-])CC1Cc1ccccc1 (stereo not given) (10 µM)
inactive: CDK7 = 0 | CDK9 = 0 | CHEK2 = 0 | CSF1R 0 | CSK 0 | CSNK1A1 = 0 | CSNK1D 0 | DDR1 = 0 | DYRK1B 0 | DYRK2 = 0 | EGFR 0 | EGFR_G719S 0 | EGFR_G719S_T790M 0 | EGFR_L718V 0 | EGFR_L858R 0 | EGFR_L861Q 0 | EGFR_T790M 0 | EPHA2 = 0 | ERBB3 = 0 | [1] 0

COc1cc2c(cc1OC)[C@@H]1C(=O)c3ccc4c(c3O[C@@H]1CO2)C=CC(C)(C)O4 [Deguelin] (10 µM)
inactive: CDK7 = 0 | CDK9 = 0 | CHEK2 = 0 | CSF1R 0 | CSK 0 | CSNK1A1 = 0 | CSNK1D 0 | DDR1 = 0 | DYRK1B 0 | DYRK2 = 0 | EGFR 0 | EGFR_G719S 0 | EGFR_G719S_T790M 0 | EGFR_L718V 0 | EGFR_L858R 0 | EGFR_L861Q 0 | EGFR_T790M 0 | EPHA2 = 0 | ERBB3 = 0 | [1] 0

CN1CCN(c2ccc(-c3ccncc3-c3cc(F)c(O)c(F)c3)cc2)CC1 (10 µM)
inactive: CDK7 = 0 | CDK9 = 0 | CHEK2 = 0 | CSF1R 0 | CSK 0 | CSNK1A1 = 0 | CSNK1D 0 | DDR1 = 0 | DYRK1B 0 | DYRK2 = 0 | EGFR 0 | EGFR_G719S 0 | EGFR_G719S_T790M 0 | EGFR_L718V 0 | EGFR_L858R 0 | EGFR_L861Q 0 | EGFR_T790M 0 | EPHA2 = 0 | ERBB3 = 0 | [1] 0

Nc1nccc(Oc2ccc3c(C(=O)Nc4cccc(C(F)(F)F)c4)cccc3c2)n1 (10 µM)
inactive: CDK7 = 0 | CDK9 = 0 | CHEK2 = 0 | CSF1R 0 | CSK 0 | CSNK1A1 = 0 | CSNK1D 0 | DDR1 = 0 | DYRK1B 0 | DYRK2 = 0 | EGFR 0 | EGFR_G719S 0 | EGFR_G719S_T790M 0 | EGFR_L718V 0 | EGFR_L858R 0 | EGFR_L861Q 0 | EGFR_T790M 0 | EPHA2 = 0 | ERBB3 = 0 | [1] 0

Cc1cccc(CC(=O)N2CCc3c2ccc(-c2cn(C)c4ncnc(N)c24)c3F)n1 (10 µM)
inactive: CDK7 = 0 | CDK9 = 0 | CHEK2 = 0 | CSF1R 0 | CSK 0 | CSNK1A1 = 0 | CSNK1D 0 | DDR1 = 0 | DYRK1B 0 | DYRK2 = 0 | EGFR 0 | EGFR_G719S 0 | EGFR_G719S_T790M 0 | EGFR_L718V 0 | EGFR_L858R 0 | EGFR_L861Q 0 | EGFR_T790M 0 | EPHA2 = 0 | ERBB3 = 0 | [1] 0

CCOC(=O)c1c(Nc2ccccc2Cl)oc(/C=C2\C=Nc3ncccc32)c1O (10 µM)
inactive: CDK7 = 0 | CDK9 = 0 | CHEK2 = 0 | CSF1R 0 | CSK 0 | CSNK1A1 = 0 | CSNK1D 0 | DDR1 = 0 | DYRK1B 0 | DYRK2 = 0 | EGFR 0 | EGFR_G719S 0 | EGFR_G719S_T790M 0 | EGFR_L718V 0 | EGFR_L858R 0 | EGFR_L861Q 0 | EGFR_T790M 0 | EPHA2 = 0 | ERBB3 = 0 | [1] 0

CCNC(=O)Nc1ccc(-c2nc3c(c(N4CCOC[C@@H]4C)n2)CCN(C2COC2)C3)cc1 (2.5 µM)
inactive: CDK7 = 0 | CDK9 = 0 | CHEK2 = 0 | CSF1R 0 | CSK 0 | CSNK1A1 = 0 | CSNK1D 0 | DYRK1B 0 | DYRK2 = 0 | EGFR 0 | EGFR_G719S 0 | EGFR_G719S_T790M 0 | EGFR_L718V 0 | EGFR_L858R 0 | EGFR_L861Q 0 | EGFR_T790M 0 | EPHA2 = 0 | ERBB3 = 0 | [1] 0
active: DDR1 = 1

COCCOc1cnc2ccn([C@H](C)c3nnc4c(F)cc(-c5cnn(C)c5)cn34)c(=O)c2c1 (10 µM)
inactive: CDK7 = 0 | CDK9 = 0 | CHEK2 = 0 | CSF1R 0 | CSK 0 | CSNK1A1 = 0 | CSNK1D 0 | DDR1 = 0 | DYRK1B 0 | DYRK2 = 0 | EGFR 0 | EGFR_G719S 0 | EGFR_G719S_T790M 0 | EGFR_L718V 0 | EGFR_L858R 0 | EGFR_L861Q 0 | EGFR_T790M 0 | EPHA2 = 0 | ERBB3 = 0 | [1] 0

CN(C[C@@H]1COCCO1)S(=O)(=O)Nc1ccc2ccc3ncc(-c4cnn(C)c4)cc3c(=O)c2c1 (2.5 µM)
inactive: CDK7 = 0 | CDK9 = 0 | CHEK2 = 0 | CSF1R 0 | CSK 0 | CSNK1A1 = 0 | CSNK1D 0 | DDR1 = 0 | DYRK1B 0 | DYRK2 = 0 | EGFR 0 | EGFR_G719S 0 | EGFR_G719S_T790M 0 | EGFR_L718V 0 | EGFR_L858R 0 | EGFR_L861Q 0 | EGFR_T790M 0 | EPHA2 = 0 | ERBB3 = 0 | [1] 0

CCOc1cc(=O)[nH]cc1-c1ccc(CC(=O)Nc2cc(C(C)(C)C(F)(F)F)on2)c(F)c1 (10 µM)
inactive: CDK7 = 0 | CDK9 = 0 | CHEK2 = 0 | CSF1R 0 | CSK 0 | CSNK1A1 = 0 | CSNK1D 0 | DDR1 = 0 | DYRK1B 0 | DYRK2 = 0 | EGFR 0 | EGFR_G719S 0 | EGFR_G719S_T790M 0 | EGFR_L718V 0 | EGFR_L858R 0 | EGFR_L861Q 0 | EGFR_T790M 0 | EPHA2 = 0 | ERBB3 = 0 | [1] 0

CCCS(=O)(=O)N[C@H]1C[C@@H](N(C)c2ncnc3[nH]ccc23)C1 [Abrocitinib] (10 µM)
inactive: CDK7 = 0 | CDK9 = 0 | CHEK2 = 0 | CSF1R 0 | CSK 0 | CSNK1A1 = 0 | CSNK1D 0 | DDR1 = 0 | DYRK1B 0 | DYRK2 = 0 | EGFR 0 | EGFR_G719S 0 | EGFR_G719S_T790M 0 | EGFR_L718V 0 | EGFR_L858R 0 | EGFR_L861Q 0 | EGFR_T790M 0 | EPHA2 = 0 | ERBB3 = 0 | [1] 0

CCCCNc1ncc(C(=O)NCc2ccc(-n3ccnc3)cc2)c(NC2CCC(O)CC2)n1 (stereo not given) (10 µM)
active: DDR1 = 1
inactive: CDK7 = 0 | CDK9 = 0 | CHEK2 = 0 | CSF1R 0 | CSK 0 | CSNK1A1 = 0 | CSNK1D 0 | DYRK1B 0 | DYRK2 = 0 | EGFR 0 | EGFR_G719S 0 | EGFR_G719S_T790M 0 | EGFR_L718V 0 | EGFR_L858R 0 | EGFR_L861Q 0 | EGFR_T790M 0 | EPHA2 = 0 | ERBB3 = 0 | [1] 0

Arranged by SMILES length (low to high): some entries from above
CCOC(=O)c1c(Nc2ccccc2Cl)oc(/C=C2\C=Nc3ncccc32)c1O (10 µM)
inactive: CDK7 = 0 | CDK9 = 0 | CHEK2 = 0 | CSF1R 0 | CSK 0 | CSNK1A1 = 0 | CSNK1D 0 | DDR1 = 0 | DYRK1B 0 | DYRK2 = 0 | EGFR 0 | EGFR_G719S 0 | EGFR_G719S_T790M 0 | EGFR_L718V 0 | EGFR_L858R 0 | EGFR_L861Q 0 | EGFR_T790M 0 | EPHA2 = 0 | ERBB3 = 0 | [1] 0

CCCS(=O)(=O)N[C@H]1C[C@@H](N(C)c2ncnc3[nH]ccc23)C1 [Abrocitinib] (10 µM)
inactive: CDK7 = 0 | CDK9 = 0 | CHEK2 = 0 | CSF1R 0 | CSK 0 | CSNK1A1 = 0 | CSNK1D 0 | DDR1 = 0 | DYRK1B 0 | DYRK2 = 0 | EGFR 0 | EGFR_G719S 0 | EGFR_G719S_T790M 0 | EGFR_L718V 0 | EGFR_L858R 0 | EGFR_L861Q 0 | EGFR_T790M 0 | EPHA2 = 0 | ERBB3 = 0 | [1] 0

Cc1cccc(CC(=O)N2CCc3c2ccc(-c2cn(C)c4ncnc(N)c24)c3F)n1 (10 µM)
inactive: CDK7 = 0 | CDK9 = 0 | CHEK2 = 0 | CSF1R 0 | CSK 0 | CSNK1A1 = 0 | CSNK1D 0 | DDR1 = 0 | DYRK1B 0 | DYRK2 = 0 | EGFR 0 | EGFR_G719S 0 | EGFR_G719S_T790M 0 | EGFR_L718V 0 | EGFR_L858R 0 | EGFR_L861Q 0 | EGFR_T790M 0 | EPHA2 = 0 | ERBB3 = 0 | [1] 0

CCCCNc1ncc(C(=O)NCc2ccc(-n3ccnc3)cc2)c(NC2CCC(O)CC2)n1 (stereo not given) (10 µM)
active: DDR1 = 1
inactive: CDK7 = 0 | CDK9 = 0 | CHEK2 = 0 | CSF1R 0 | CSK 0 | CSNK1A1 = 0 | CSNK1D 0 | DYRK1B 0 | DYRK2 = 0 | EGFR 0 | EGFR_G719S 0 | EGFR_G719S_T790M 0 | EGFR_L718V 0 | EGFR_L858R 0 | EGFR_L861Q 0 | EGFR_T790M 0 | EPHA2 = 0 | ERBB3 = 0 | [1] 0

CCOc1cc(=O)[nH]cc1-c1ccc(CC(=O)Nc2cc(C(C)(C)C(F)(F)F)on2)c(F)c1 (10 µM)
inactive: CDK7 = 0 | CDK9 = 0 | CHEK2 = 0 | CSF1R 0 | CSK 0 | CSNK1A1 = 0 | CSNK1D 0 | DDR1 = 0 | DYRK1B 0 | DYRK2 = 0 | EGFR 0 | EGFR_G719S 0 | EGFR_G719S_T790M 0 | EGFR_L718V 0 | EGFR_L858R 0 | EGFR_L861Q 0 | EGFR_T790M 0 | EPHA2 = 0 | ERBB3 = 0 | [1] 0
